Assay results reported in patent US20090012766A1, “Event Sequencer” (NATIONAL INSTITUTE OF ADVANCED INDUSTRIAL SCIENCE AND …, priority 2004, published 2009).
For at least one compound, name, drawing or mass did not settle the structure.

System: tetracycline-dependent promoter
Assay: Real time measurement of tetracycline-regulated gene expression on array substrates
Format: cell-based
Details: tetracycline-dependent vs tetracycline-independent promoter

## CN(C)[C@@H]1C(O)=C(C(N)=O)C(=O)[C@@]2(O)C(O)=C3C(=O)c4c(O)cccc4[C@@](C)(O)[C@H]3C[C@@H]12 [tetracycline]
  change in gene expression: detected only for the tetracycline-dependent promoter
